Measured values reported in article PMC8829448.
No constants are given. Whether binding was seen depends on the method and setting. Binding seen in cells or lysates may run through a third protein. Some binding calls cover weakened binding; strength is not graded here. Where a sequence is shown, tags or fusion partners need not be part of it.

Biological target: T1, Flag-Id3 (mouse) (UniProt P41133)
T1 sequence: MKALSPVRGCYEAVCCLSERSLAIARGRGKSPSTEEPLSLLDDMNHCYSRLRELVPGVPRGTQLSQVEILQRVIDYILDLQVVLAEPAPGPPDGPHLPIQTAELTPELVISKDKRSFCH
Test: co-IP; C2C12 cells co-transfected with pcDNA3.1-XBP1u and Flag-Id3, treated with MG132 (20 uM) for 6 h before lysis; RIPA lysis buffer; Pierce Crosslink magnetic IP and Co-IP kit; immunoprecipitated with anti-Flag antibodies, rabbit IgG as negative control; western blot

binding: binds
B1: unspliced X-box-binding protein 1 (XBP1u) (protein, UniProt O35426-1 1-267)
chain: MVVVAAAPSAATAAPKVLLLSGQPASGGRALPLMVPGPRAAGSEASGTPQARKRQRLTHLSPEEKALRRKLKNRVAAQTARDRKKARMSELEQQVVDLEEENHKLQLENQLLREKTHGLVVENQELRTRLGMDTLDPDEVPEVEAKGSGVRLVAGSAESAALRLCAPLQQVQAQLSPPQNIFPWTLTLLPLQILSLISFWAFWTSWTLSCFSNVLPQSLLVWRNSQRSTQKDLVPYQPPFLCQWGPHQPSWKPLMNSFVLTMYTPSL
